Assay results reported in article doi:10.1101/2020.08.03.235200.
Read-outs that look alike come from different tables or passages of the source. These are yes or no findings as the source states them, for the method shown. In cells and extracts the contact can be indirect. Some entries that bind do so weakly or less than the wild type. For part of these data: Tags and fused reporters may be left off the sequences shown. Values belong to the binder of their own block, whether it stands above or below them.

Columns and labels:
[1] = target: MRAP2 Δ38-44 with C-terminal LgBiT or C-terminal SmBiT (UniProt Q96G30); assay: split reporter
[2] = target: MRAP2 lacking the polybasic motif (MRAP2 Δ38-44), N-terminally FLAG- or HA-tagged (UniProt Q96G30); assay: co-IP
[3] = target: MRAP2 lacking the polybasic motif (MRAP2 Δ38-44), N-terminally FLAG- or HA-tagged (UniProt Q96G30); assay: co-IP; remark: listed apart in the source
[4] = target: T1, MRAP2 wild type with C-terminal LgBiT or C-terminal SmBiT, Q96G30; assay: split reporter; conditions: remark: other sources report otherwise
T1 chain: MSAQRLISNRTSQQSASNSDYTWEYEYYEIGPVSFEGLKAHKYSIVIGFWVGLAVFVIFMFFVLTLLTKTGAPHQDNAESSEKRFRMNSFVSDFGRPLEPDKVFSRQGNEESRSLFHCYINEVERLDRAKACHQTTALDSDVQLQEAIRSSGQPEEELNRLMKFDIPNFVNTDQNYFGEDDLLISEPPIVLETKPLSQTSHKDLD

[5] = target: MRAP2 G48L+G52L, N-terminally FLAG- or HA-tagged (UniProt Q96G30); assay: co-IP
[6] = target: MRAP2 G48L+G52L with C-terminal LgBiT or C-terminal SmBiT (UniProt Q96G30); assay: split reporter

binding [1]: binds
B1: MRAP2 Δ38-44 with C-terminal LgBiT or C-terminal SmBiT (protein, UniProt Q96G30)
chain: MSAQRLISNRTSQQSASNSDYTWEYEYYEIGPVSFEGIVIGFWVGLAVFVIFMFFVLTLLTKTGAPHQDNAESSEKRFRMNSFVSDFGRPLEPDKVFSRQGNEESRSLFHCYINEVERLDRAKACHQTTALDSDVQLQEAIRSSGQPEEELNRLMKFDIPNFVNTDQNYFGEDDLLISEPPIVLETKPLSQTSHKDLD

binding [2]: binds
binding [3]: binds
B2: MRAP2 lacking the polybasic motif (MRAP2 Δ38-44), N-terminally FLAG- or HA-tagged (protein, UniProt Q96G30)
chain: MSAQRLISNRTSQQSASNSDYTWEYEYYEIGPVSFEGIVIGFWVGLAVFVIFMFFVLTLLTKTGAPHQDNAESSEKRFRMNSFVSDFGRPLEPDKVFSRQGNEESRSLFHCYINEVERLDRAKACHQTTALDSDVQLQEAIRSSGQPEEELNRLMKFDIPNFVNTDQNYFGEDDLLISEPPIVLETKPLSQTSHKDLD
modifications: N-terminal asparagine residue in both glycosylated and unglycosylated forms

binding [4]: binds
B3: MRAP2 wild type with C-terminal LgBiT or C-terminal SmBiT, Q96G30 1-205 (protein)
chain: MSAQRLISNRTSQQSASNSDYTWEYEYYEIGPVSFEGLKAHKYSIVIGFWVGLAVFVIFMFFVLTLLTKTGAPHQDNAESSEKRFRMNSFVSDFGRPLEPDKVFSRQGNEESRSLFHCYINEVERLDRAKACHQTTALDSDVQLQEAIRSSGQPEEELNRLMKFDIPNFVNTDQNYFGEDDLLISEPPIVLETKPLSQTSHKDLD

The next lines start with the binder.

B4: MRAP2 G48L+G52L, N-terminally FLAG- or HA-tagged (protein, UniProt Q96G30 1-205)
chain: MSAQRLISNRTSQQSASNSDYTWEYEYYEIGPVSFEGLKAHKYSIVILFWVLLAVFVIFMFFVLTLLTKTGAPHQDNAESSEKRFRMNSFVSDFGRPLEPDKVFSRQGNEESRSLFHCYINEVERLDRAKACHQTTALDSDVQLQEAIRSSGQPEEELNRLMKFDIPNFVNTDQNYFGEDDLLISEPPIVLETKPLSQTSHKDLD
binding [5]: binds

B5: MRAP2 G48L+G52L with C-terminal LgBiT or C-terminal SmBiT (protein, UniProt Q96G30 1-205)
chain: MSAQRLISNRTSQQSASNSDYTWEYEYYEIGPVSFEGLKAHKYSIVILFWVLLAVFVIFMFFVLTLLTKTGAPHQDNAESSEKRFRMNSFVSDFGRPLEPDKVFSRQGNEESRSLFHCYINEVERLDRAKACHQTTALDSDVQLQEAIRSSGQPEEELNRLMKFDIPNFVNTDQNYFGEDDLLISEPPIVLETKPLSQTSHKDLD
binding [6]: binds
